Laboratory results published in patent publication US20200172486A1, “PYRIDONE COMPOUNDS AND AGRICULTURAL AND HORTICULTURAL FUNGICIDES CONTAINING THE SAME AS ACTIVE INGREDIENTS” (MITSUI CHEMICALS AGRO, INC., priority 2017, published 2020).
Some results were stated once for a whole list of compounds, not compound by compound. For at least one compound, name, drawing or mass did not settle the structure.

Assays:
[1] = test system: cucumber anthracnose fungi (Colletotrichum orbiculare); assay: Test Example H: cucumber anthracnose, spray test on potted cucumber plants; details: cucumber (Sagami Hanjiro), 250 ppm spray 2.5 ml/pot before inoculation, 6 to 10 days after inoculation
[2] = test system: gray mold fungi (Botrytis cinerea); assay: Test Example B: tomato gray mold, spray test on potted tomato plants; details: tomato (Oogata Fukuju), 250 ppm spray 2.5 ml/pot before inoculation, 2 to 3 days after inoculation
[3] = test system: grape downy mildew fungus (Plasmopara viticola); assay: Test Example G: grape downy mildew, spray test on potted grape plants; details: grape (Neomuscat), 250 ppm spray 2.5 ml/pot before inoculation, 7 to 10 days after inoculation
[4] = test system: cabbage alternaria sooty spot fungi (Alternaia brassicicola); assay: Test Example C: cabbage alternaria sooty spot, spray test on potted cabbage plants; details: cabbage (Shikidori), 250 ppm spray 2.5 ml/pot before inoculation, 2 to 3 days after inoculation

Measured: control value

CCn1c(-c2c(F)cc(F)cc2F)c(N2CCCC2)cc(Br)c1=O [Compound 116]
> 50%: all assays above

CCn1c(-c2ccc(F)cc2Cl)c(N(C)c2ccccc2)cc(Br)c1=O [Compound 289]
> 50%: all assays above

CCN(CC(F)F)c1cc(Cl)c(=O)n(CC)c1-c1c(F)cccc1F [compound 304]
> 50%: all assays above

CCn1c(-c2ccc(F)cc2Cl)c(NC(C)C)cc(Cl)c1=O [Compound 212]
> 50%: all assays above

C#CCN(CC)c1cc(Br)c(=O)n(CC)c1-c1ccc(F)cc1Br [compound 301]
> 50%: all assays above

C#CCN(CC)c1cc(Br)c(=O)n(CC)c1-c1c(F)cc(F)cc1F [Compound 130]
> 50%: all assays above

CCn1c(-c2ccc(F)cc2Cl)c(NCc2ccccc2)cc(Cl)c1=O [Compound 58]
> 50%: all assays above

CCn1c(-c2ccc(F)cc2F)c(Nc2ccccc2)cc(Cl)c1=O [Compound 294]
> 50%: all assays above

CCN(CC)c1cc(Br)c(=O)n(C)c1-c1c(F)cc(OC)cc1F [Compound 88]
> 50%: all assays above

C#CCNc1cc(Cl)c(=O)n(CC)c1-c1c(F)cccc1F [Compound 184]
> 50%: all assays above

CCN(C)c1cc(Cl)c(=O)n(CC)c1-c1c(F)cc(OC)cc1F [Compound 23]
> 50%: all assays above

CCn1c(-c2c(F)cccc2F)c(Nc2ccc(F)cc2Cl)cc(Cl)c1=O [compound 319]
> 50%: all assays above

CCC(C)N(C)c1cc(Br)c(=O)n(CC)c1-c1c(F)cc(OC)cc1F (centres unmarked) [Compound 139]
> 50%: all assays above

C#CCOc1cc(F)c(-c2c(N(C)CC#C)cc(Cl)c(=O)n2CC)c(F)c1 [Compound 251]
> 50%: all assays above

CCC(C)N(C)c1cc(Br)c(=O)n(CC)c1-c1c(F)cc(F)cc1F (centres unmarked) [Compound 136]
> 50%: all assays above

CCn1c(-c2c(F)cc(F)cc2F)c(NC(C)C)cc(Br)c1=O [Compound 105]
> 50%: all assays above

CCn1c(-c2ccc(OC)cc2Cl)c(N(C)C(C)C)cc(Cl)c1=O [Compound 223]
> 50%: all assays above

CCN(CC)c1cc(Br)c(=O)n(C)c1-c1c(F)cc(F)cc1F [Compound 86]
> 50%: all assays above

CCn1c(-c2c(F)cc(OCCOC)cc2F)c(N(C)C(C)C)cc(Br)c1=O [Compound 245]
> 50%: all assays above

CCN(CC)c1cc(Cl)c(=O)n(C)c1-c1c(F)cc(F)cc1F [Compound 82]
> 50%: all assays above

CCn1c(-c2ccc(OC)cc2Cl)c(NC(C)C)cc(Cl)c1=O [Compound 221]
> 50%: all assays above

C#CCN(C)c1cc(Cl)c(=O)n(CC)c1-c1c(F)cc(OCCOC)cc1F [Compound 253]
> 50%: all assays above

C=CCN(C)c1cc(Br)c(=O)n(CC)c1-c1c(F)cc(F)cc1F [Compound 101]
> 50%: all assays above

CCn1c(-c2ccc(OC)cc2Cl)c(NCc2ccccc2)cc(Cl)c1=O [Compound 57]
> 50%: all assays above

C=CCN(CC)c1cc(Cl)c(=O)n(CC)c1-c1c(F)cc(F)cc1F [Compound 143]
> 50%: all assays above

CCn1c(-c2ccc(F)cc2Cl)c(NC(C)C)cc(Br)c1=O [Compound 213]
> 50%: all assays above

CCN(CC)c1cc(Br)c(=O)n(CC(F)F)c1-c1c(F)cc(OC)cc1F [Compound 230]
> 50%: all assays above

CCn1c(-c2ccc(F)cc2F)c(N(C)C(C)C)cc(Cl)c1=O [Compound 264]
> 50%: all assays above

CCn1c(-c2c(F)cc(F)cc2F)c(NC2CCCC2)cc(Br)c1=O [Compound 120]
> 50%: all assays above

CCC(C)Nc1cc(Br)c(=O)n(CC)c1-c1c(F)cc(F)cc1F (centres unmarked) [Compound 135]
> 50%: all assays above

CCn1c(-c2ccc(F)cc2Br)c(Nc2ccccc2)cc(Br)c1=O [compound 306]
> 50%: all assays above

CCn1c(-c2c(F)cccc2F)c(N(C)C(C)C)cc(Br)c1=O [Compound 208]
> 50%: all assays above

CCN(C)c1cc(Cl)c(=O)n(CC)c1-c1ccc(OC)cc1Cl [Compound 53]
> 50%: all assays above

CC#CCN(C)c1cc(Br)c(=O)n(CC)c1-c1c(F)cc(F)cc1F [Compound 147]
> 50%: all assays above

C#CCN(C)c1cc(Br)c(=O)n(CC)c1-c1ccc(F)cc1Br [Compound 293]
> 50%: all assays above

CCN(CC(F)F)c1cc(Br)c(=O)n(CC)c1-c1c(F)cccc1F [Compound 259]
> 50%: all assays above

CCN(C)c1cc(Br)c(=O)n(CC)c1-c1c(F)cc(OC)cc1F [Compound 76]
> 50%: all assays above

C#CCOc1cc(F)c(-c2c(N(C)CC#C)cc(Br)c(=O)n2CC)c(F)c1 [Compound 252]
> 50%: all assays above

CCN(C)c1cc(Br)c(=O)n(CC)c1-c1c(F)cccc1F [Compound 207]
> 50%: all assays above

CCn1c(-c2c(F)cc(F)cc2F)c(NC(C)C)cc(Cl)c1=O [Compound 237]
> 50%: all assays above

CCn1c(-c2c(F)cc(F)cc2F)c(N(C)c2ccccc2)cc(Br)c1=O [Compound 100]
> 50%: all assays above

C#CCN(C)c1cc(Br)c(=O)n(CC)c1-c1ccc(F)cc1Cl [Compound 218]
> 50%: all assays above

CCn1c(-c2c(F)cccc2F)c(NC(C)C)cc(Br)c1=O [Compound 199]
> 50%: all assays above

C#CCN(C)c1cc(Br)c(=O)n(CC)c1-c1c(F)cccc1F [Compound 198]
> 50%: all assays above
